Values from PubChem BioAssay AID1053208 (Peter MacCallum Cancer Centre, 2014)

- Aim: 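Synthetic lethal interactions between gene loss and doxorubicin in osteosarcoma cells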 (primary screen)
- Cells: mouse osteosarcoma cells, early-passage culture from an engineered mouse model of fibroblastic bone tumour
- Knock-down reagent: siRNA pool against mouse genes, 40 nM
- Time to read-out: about 120 h (48 h before drug, then 72 h with drug)
- Challenge: doxorubicin 100 nM for 72 h, roughly 30-40% inhibitory dose
- Detection: 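Viability read as ATP luminescence after 72 h of 100 nM doxorubicin or none, duplicate wells averaged, scaled to non-targeting siRNA, then expressed as robust z-scores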
- Direction: viability z-score with doxorubicin: higher = more viable cells under doxorubicin; viability z-score without drug: higher = more viable cells with knock-down alone
- Hit rule: 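Called active if knock-down leaves viability unchanged without drug (z within -2 to 2) but lowers it with doxorubicin (z at or under -2)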
The whole screen tested about 17,000 reagents; this is an unselected part. 788 of all reagents (4.7%) were called active. 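Calls rest on z-score classes alone; an extra cut-off of viability at most 70% of control was not applied to them.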 Further read-outs or replicates are left out here.

What did the screen give for Cep295?
combined z-score class: no change with or without drug; viability z-score with doxorubicin: 0; viability z-score without drug: -1.18; outcome: inactive

What did the screen give for Miox?
combined z-score class: no change with or without drug; viability z-score with doxorubicin: 0.67; viability z-score without drug: -0.17; outcome: inactive

Which result is listed for Spats1?
combined z-score class: no change with or without drug; viability z-score with doxorubicin: 0.22; viability z-score without drug: -0.34; outcome: inactive

For Ca13, what was measured?
combined z-score class: no change with or without drug; viability z-score with doxorubicin: -1.8; viability z-score without drug: -0.34; outcome: inactive

With Gnrhr, what was measured?
combined z-score class: no change with or without drug; viability z-score with doxorubicin: 0.22; viability z-score without drug: 0.17; outcome: inactive

With Tuba1b, what does the deposit list?
combined z-score class: low cell count without drug only; viability z-score with doxorubicin: -1.35; viability z-score without drug: -3.88; outcome: inactive

What is on record for Gjd4?
combined z-score class: no change with or without drug; viability z-score with doxorubicin: -0.67; viability z-score without drug: -0.51; outcome: inactive

Targets listed so far whose gene name begins with C or c (2):
Cep295 → combined z-score class = no change with or without drug; viability z-score with doxorubicin = 0; viability z-score without drug = -1.18; outcome = inactive
Ca13 → combined z-score class = no change with or without drug; viability z-score with doxorubicin = -1.8; viability z-score without drug = -0.34; outcome = inactive

More results follow:
With Ccdc134, how do the results read?
combined z-score class: no change with or without drug; viability z-score with doxorubicin: 1.12; viability z-score without drug: 1.69; outcome: inactive

How did the screen score Ca2?
combined z-score class: no change with or without drug; viability z-score with doxorubicin: 0.22; viability z-score without drug: 0.51; outcome: inactive

How did the screen score Eef1b2?
combined z-score class: no change with or without drug; viability z-score with doxorubicin: 0.45; viability z-score without drug: 0.67; outcome: inactive

With Anp32e, what does the deposit list?
combined z-score class: no change with or without drug; viability z-score with doxorubicin: -0.9; viability z-score without drug: -0.51; outcome: inactive

With Nup214, what does the deposit list?
combined z-score class: low cell count with and without drug; viability z-score with doxorubicin: -3.04; viability z-score without drug: -3.2; outcome: inactive
